# Results as given in the supplement of paper PMC8728848.
# The other results are listed elsewhere or left out.
# Key:
# Test in all cases: glycan array binding signal (z-score within array); higher = stronger binding
# Conditions in all cases: glycan notation: IUPAC condensed, linker removed
# [1] = target: GlcNAc(b1-2)Gal(b1-3)GalNAc
# How it was run: (§1)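 Negative Z-scores can be read as non-binding. The Z-score is calculated within each array and then averaged across arrays of one protein sequence at different concentrations or buffers and across linkers. Arrays, 3228 in all, were curated from the Consortium for Functional Glycomics database and kept only where the protein sequence was available.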
# [2] = target: GlcNAc(b1-2)Man(a1-3)[GlcNAc(b1-2)Man(a1-6)]Man(b1-4)GlcNAc(b1-4)GlcNAc
# How it was run: as §1
# [3] = target: GlcNAc(b1-2)Man(a1-3)[GlcNAc(b1-2)Man(a1-6)]Man(b1-4)GlcNAc(b1-4)[Fuc(a1-6)]GlcNAc
# How it was run: as §1
# [4] = target: GlcNAc(b1-2)Man(a1-3)[GlcNAc(b1-4)][GlcNAc(b1-2)Man(a1-6)]Man(b1-4)GlcNAc(b1-4)GlcNAc
# How it was run: as §1
# [5] = target: GlcNAc(b1-2)Man(a1-3)[GlcNAc(b1-4)][GlcNAc(b1-2)Man(a1-6)]Man(b1-4)GlcNAc(b1-4)[Fuc(a1-6)]GlcNAc
# How it was run: as §1
# [6] = target: GlcNAc(b1-2)[GlcNAc(b1-4)]Man(a1-3)[GlcNAc(b1-2)Man(a1-6)]Man(b1-4)GlcNAc(b1-4)GlcNAc
# How it was run: as §1
# [7] = target: GlcNAc(b1-2)[GlcNAc(b1-4)]Man(a1-3)[GlcNAc(b1-4)][GlcNAc(b1-2)Man(a1-6)]Man(b1-4)GlcNAc(b1-4)GlcNAc
# How it was run: as §1
# [8] = target: GlcNAc(b1-2)[GlcNAc(b1-4)]Man(a1-3)[GlcNAc(b1-4)][GlcNAc(b1-2)[GlcNAc(b1-6)]Man(a1-6)]Man(b1-4)GlcNAc(b1-4)GlcNAc
# How it was run: as §1
# [9] = target: GlcNAc(b1-2)[GlcNAc(b1-4)]Man(a1-3)[GlcNAc(b1-4)][GlcNAc(b1-2)[GlcNAc(b1-6)]Man(a1-6)]Man(b1-4)GlcNAc(b1-4)[Fuc(a1-6)]GlcNAc
# How it was run: as §1
# [10] = target: GlcNAc(b1-2)[GlcNAc(b1-6)]Man(a1-6)[GlcNAc(b1-2)Man(a1-3)]Man(b1-4)GlcNAc(b1-4)GlcNAc
# How it was run: as §1
# [11] = target: GlcNAc(b1-2)[GlcNAc(b1-6)]Man(a1-6)[GlcNAc(b1-2)Man(a1-3)]Man(b1-4)GlcNAc(b1-4)[Fuc(a1-6)]GlcNAc
# How it was run: as §1
# [12] = target: GlcNAc(b1-2)[GlcNAc(b1-6)]Man(a1-6)[GlcNAc(b1-4)][GlcNAc(b1-2)Man(a1-3)]Man(b1-4)GlcNAc(b1-4)GlcNAc
# How it was run: as §1
# GlcNAc(b1-3)Fuc = target: GlcNAc(b1-3)Fuc
# How it was run: as §1
# GlcNAc(b1-3)Gal = target: GlcNAc(b1-3)Gal
# How it was run: as §1
# [13] = target: GlcNAc(b1-3)Gal(b1-3)GalNAc
# How it was run: as §1
# GlcNAc(b1-3)Gal(b1-4)Glc = target: GlcNAc(b1-3)Gal(b1-4)Glc
# How it was run: as §1
# [14] = target: GlcNAc(b1-3)Gal(b1-4)GlcNAc
# How it was run: as §1
# [15] = target: GlcNAc(b1-3)Gal(b1-4)GlcNAc(b1-2)Man(a1-3)[GlcNAc(b1-3)Gal(b1-4)GlcNAc(b1-2)Man(a1-6)]Man(b1-4)GlcNAc(b1-4)GlcNAc
# How it was run: as §1
# [16] = target: GlcNAc(b1-3)Gal(b1-4)GlcNAc(b1-2)Man(a1-3)[GlcNAc(b1-3)Gal(b1-4)GlcNAc(b1-2)Man(a1-6)]Man(b1-4)GlcNAc(b1-4)[Fuc(a1-6)]GlcNAc
# How it was run: as §1
# [17] = target: GlcNAc(b1-3)Gal(b1-4)GlcNAc(b1-2)[GlcNAc(b1-3)Gal(b1-4)GlcNAc(b1-6)]Man(a1-6)[GlcNAc(b1-3)Gal(b1-4)GlcNAc(b1-2)Man(a1-3)]Man(b1-4)GlcNAc(b1-4)GlcNAc
# How it was run: as §1
# [18] = target: GlcNAc(b1-3)Gal(b1-4)GlcNAc(b1-3)Gal(b1-4)GlcNAc
# How it was run: as §1
# [19] = target: GlcNAc(b1-3)Gal(b1-4)GlcNAc(b1-3)Gal(b1-4)GlcNAc(b1-2)Man(a1-3)[GlcNAc(b1-3)Gal(b1-4)GlcNAc(b1-3)Gal(b1-4)GlcNAc(b1-2)Man(a1-6)]Man(b1-4)GlcNAc(b1-4)GlcNAc
# How it was run: as §1
binder,measurement,setting,value
"Awp3 (Candida glabrata), B4UN32 (protein) MISFVTLLAILGLLSISWADQTVRSVAGDQRVTDPVIVGDNSILDYYGGSNYDFSNNFEIGRGTLYIGKESYFSSFQSAPTDVPNSFHLLIKNTNNLQNNGQFIIENIKRHANQCSNSSIQVFPINFQNDGEFEIISGGVEGRCCLPTSVIAPQNFLNNGKFYYKVLTDTGSIYSGSCMQNVDIGASTTTTVNNNLWEFTGSINAQINGAVSGAAQINLDGSNMFVNANTFSGQVVNLINGGSFLQTSDPLSNIVVINGLGTSDTGVTSIAVKGKGKSFTYNPSSGIVKLTTVEGKTYAYQIGCGYNTKKFITNNDSGASYESADNFFVLTYSEPYSPQTCQLENSSIFSSNFISTSTSSSSSSSSASSLPSSMSSSLPSSLSSSLSSSLSSSMSSSMSSLFIIPPPYTTTRSSGSSIIDTEIVSFYSTTDSPGHTITGTTTTTLYGPHTHSSVSTPSSSSESSTTSNSSIESSSLPHTSVSSTPESSITPSSNTISSSPTSDFSSVQSSSIMESSSVVASSSVINSSSIVDSSSSSASSLPSSMSSSLSSSMSSSLPSSMSSSLSSSLSSSLSSSMSSSMSSLFIIPPPYTTTRSSGSSIIDTEIVSFYSTTDSPGHTITGTTTTTLYGPHTHSSVSTPSSSSESSTTSNSSIESSSLPHTSVSSTPESSITPSSNTISSSPTSDFSSVQSSSIMESSSVVASSSVINSSSIVDSSSSSASSLPSSMPSSLPSSMSSSLSSSMSSSLSSSLSSSLSSSMSSSMSSLFIIPPPYTTTRSSGSSIIDTEIVSFYSTTDSPGHTITGTTTTTLYGPHTHSSVSTPSSSSESSTTSNSSIESSSLPHTSVSSTPESSITPSSNTISSSPTSDFSSVQSSSIMESSSVVASSSATQSSSVINSSSIVDSSSSSASSLPSSMPSSLPSSLSSSLSSSLSSSMSSSMSSLFIIPPPYTTTRSSGSSIIDTEIVSFYSTTDSPGHTITGTTTTTLYESSIYSSSSSTIQESELSNTSRTTMTSNSSVSISSTSSRSSFSNTKSSTIVISQSASLPDSKTDIILSTSSNIGYSSRSLLSDLGTSISDSDIHHSVLHSTESYSSNESGTNPFTSIASLSNFIPESSSHTSTALGSENSVISSDILTTMSHPVATNSGDKPTTPKRSEQVSTTMTSSGPTPDTSSFDTDGMSAYSRPEFTTNSLEVNKSSTSQLGNNKQTFSNLQLESTRPHSENEVDNNTRLLQSIQQSSTYGTNNVNPLSPTGSISIPLTEDGQGDNNNWNSPATNDLCTQISFNLTATTITVTDRITITDSIHDISSEVITSYIYQTIVDQKTVTQTVDGKSLANKMSSIPKPSSRSLIQPQPPVAIELQEGAASTSRVSLVSLFISIILVLL",glycan array binding signal (z-score),[1],0.916
same,glycan array binding signal (z-score),[2],-1.14
same,glycan array binding signal (z-score),[3],-0.385
same,glycan array binding signal (z-score),[4],-0.811
same,glycan array binding signal (z-score),[5],-0.106
same,glycan array binding signal (z-score),[6],0.257
same,glycan array binding signal (z-score),[7],-1.57
same,glycan array binding signal (z-score),[8],-1.54
same,glycan array binding signal (z-score),[9],1.3
same,glycan array binding signal (z-score),[10],1.6
same,glycan array binding signal (z-score),[11],1.75
same,glycan array binding signal (z-score),[12],-0.365
same,glycan array binding signal (z-score),GlcNAc(b1-3)Fuc,-0.452
same,glycan array binding signal (z-score),GlcNAc(b1-3)Gal,-1.01
same,glycan array binding signal (z-score),[13],-0.599
same,glycan array binding signal (z-score),GlcNAc(b1-3)Gal(b1-4)Glc,-0.5
same,glycan array binding signal (z-score),[14],0.301
same,glycan array binding signal (z-score),[15],0.171
same,glycan array binding signal (z-score),[16],2.04
same,glycan array binding signal (z-score),[17],-0.51
same,glycan array binding signal (z-score),[18],0.308
same,glycan array binding signal (z-score),[19],-0.083
